Most of the hits are listed elsewhere, so they are rarer here than in the full data. Inconclusive results are not listed. Active and inactive are the calls of the source. Calls come from the whole dose curve; as a rule, active = well fitted curve in the direction sought with a large enough effect; inconclusive = small, poorly fitted or top-dose-only effect, or another doubt; inactive = no such curve, though single readings can be large; an effect the other way counts as inactive or inconclusive.
What was measured:
[1] = qHTS of pediatric cancer cell lines to identify multiple opportunities for drug repurposing: Primary screen for NB1643 cells (AID 1347099); conditions: NB1643 neuroblastoma viability, CellTiter-Glo luminescence, 48 h; at 46 µM (top of the series);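 note: plate controls were DMSO neutral control for no effect and bortezomib positive control for full effect; nearly all actives have a fitted effect of over 50% in size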
Procedure, shortened: (§1)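 ATP-based luminescence (CellTiter-Glo) quantifies viability after a 48-hour exposure. Compounds are dosed across 8 or 11 final concentrations; DMSO and 2.3 µM bortezomib serve as controls.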

Amino acid sequences for entries named in this document (tags omitted). A change or cut given only in a name is not applied to a line headed by its entry.
UniProt Q99828: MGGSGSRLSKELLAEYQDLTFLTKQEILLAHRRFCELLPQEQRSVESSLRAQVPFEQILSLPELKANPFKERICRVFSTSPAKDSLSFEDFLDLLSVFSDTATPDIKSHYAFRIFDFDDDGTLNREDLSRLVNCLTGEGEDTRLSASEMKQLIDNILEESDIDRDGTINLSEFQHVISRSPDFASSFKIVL
UniProt P07203, whole entry, looked up: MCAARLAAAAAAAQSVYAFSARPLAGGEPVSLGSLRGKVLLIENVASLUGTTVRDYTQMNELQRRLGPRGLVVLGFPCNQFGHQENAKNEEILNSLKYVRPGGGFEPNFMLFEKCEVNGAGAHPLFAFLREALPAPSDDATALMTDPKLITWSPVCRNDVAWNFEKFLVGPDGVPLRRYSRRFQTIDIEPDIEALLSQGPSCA
UniProt P36969, whole entry, looked up: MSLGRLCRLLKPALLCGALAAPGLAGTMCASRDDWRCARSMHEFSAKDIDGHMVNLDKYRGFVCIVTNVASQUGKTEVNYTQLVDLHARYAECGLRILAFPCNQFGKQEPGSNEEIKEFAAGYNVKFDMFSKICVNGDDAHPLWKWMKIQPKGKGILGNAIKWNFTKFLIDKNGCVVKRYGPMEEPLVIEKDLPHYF

[2] = qHTS of pediatric cancer cell lines to identify multiple opportunities for drug repurposing: Primary screen for LAN-5 cells (AID 1347100); conditions: LAN-5 neuroblastoma viability, CellTiter-Glo luminescence, 48 h; at 46 µM (top of the series);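 note: plate controls were DMSO neutral control for no effect and bortezomib positive control for full effect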
Procedure, shortened: (§2)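 Cells (500-1,000/well) rested 5 h, then received compounds for 48 h; metabolically active cells were measured by CellTiter-Glo luminescence. Final concentrations spanned up to 46 µM (MIPE, 11-point) or 0.59 nM-46 µM (NPC, 8-point) in primary screens, 11-point in follow-ups.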

[3] = qHTS of pediatric cancer cell lines to identify multiple opportunities for drug repurposing: Primary screen for BT-12 cells (AID 1347101); conditions: BT-12 viability, CellTiter-Glo luminescence, 48 h; at 57.3 µM (top of the series);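 note: plate controls were DMSO for no effect and bortezomib positive control for full effect; nearly all actives have a fitted effect of over 25% in size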
Procedure, shortened: as §2

[4] = qHTS of pediatric cancer cell lines to identify multiple opportunities for drug repurposing: Primary screen for Rh18 cells (AID 1347102); conditions: Rh18 rhabdomyosarcoma viability, CellTiter-Glo luminescence, 48 h; at 46 µM (top of the series); note: % is set by controls: 0 for no effect and ±100 for the full control effect; nearly all actives have a fitted effect of over 65% in size
Procedure, shortened: as §2

[5] = qHTS of pediatric cancer cell lines to identify multiple opportunities for drug repurposing: Primary screen for RD cells (AID 1347104); conditions: RD rhabdomyosarcoma viability, CellTiter-Glo luminescence, 48 h; at 46 µM (top of the series);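 note: plate controls were DMSO for no effect and bortezomib for full effect; nearly all actives have a fitted effect of over 55% in size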
Procedure, shortened: as §1

[6] = qHTS of pediatric cancer cell lines to identify multiple opportunities for drug repurposing: Primary screen for MG 63 (6-TG R) cells (AID 1347105); conditions: MG 63 (6-TG R) viability, CellTiter-Glo, 48 h; at 46 µM (top of the series); note: % is set by controls: 0 for no effect and ±100 for the full control effect; nearly all actives have a fitted effect of over 50% in size
Procedure, shortened: as §1

[7] = qHTS of pediatric cancer cell lines to identify multiple opportunities for drug repurposing: Primary screen for control Hh wild type fibroblast cells (AID 1347106); conditions: Hh wild-type fibroblast viability, CellTiter-Glo luminescence, 48 h; at 46 µM (top of the series);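 note: % is set by controls: 0 for no effect and ±100 for the full control effect; a drop in luminescence marks cytotoxicity and a rise apparent proliferation; nearly all actives have a fitted effect of over 55% in size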
Procedure, shortened: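 Viability after 48 h compound treatment at 37C, 500-1,000 cells/well, read as ATP luminescence with CellTiter-Glo. Primary screens used 11-point (MIPE, 0.78 nM-46 µM) or 8-point (NPC, 0.59 nM-46 µM) final concentrations; follow-up screens used 11-point dilutions.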

[8] = qHTS of pediatric cancer cell lines to identify multiple opportunities for drug repurposing: Primary screen for Rh30 cells (AID 1347107); conditions: Rh30 rhabdomyosarcoma viability, CellTiter-Glo luminescence, 48 h; at 46 µM (top of the series); note: % is set by controls: 0 for no effect and ±100 for the full control effect; nearly all actives have a fitted effect of over 75% in size
Procedure, shortened: as §2

[9] = qHTS of pediatric cancer cell lines to identify multiple opportunities for drug repurposing: Primary screen for Rh41 cells (AID 1347108); conditions: Rh41 rhabdomyosarcoma viability, CellTiter-Glo luminescence, 48 h; at 46 µM (top of the series);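 note: luminescence drop marks cytotoxic hits; nearly all actives have a fitted effect of over 70% in size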
Procedure, shortened: as §1

[10] = qHTS to identify inhibitors of the type 1 interferon - major histocompatibility complex class I in skeletal muscle: primary screen against the NCATS Pharmaceutical Collection (AID 1347407); conditions: human skeletal muscle cells, IFN-b-induced MHC-I HiBiT luminescence, 24 h; at 45.9 µM (top of the series);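 note: luminescence of HiBiT knocked into endogenous HLA-B as interferon-induced MHC class I level; % is set by controls: 0 for no effect and ±100 for the full control effect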
Procedure, shortened: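 Cells were seeded with 4 ng/ml IFN-beta, incubated 1 h, then dosed with compounds over eight 1:5 steps up to 46 uM final. After 24 h at 37 C, HiBiT lytic reagent was added and luminescence read after 10 min lysis in the dark.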

[11] = molecular target: Calcium and integrin-binding protein 1 (Homo sapiens) (UniProt Q99828); experiment: Primary qHTS for Identification of Calcium Integrin Binding Protein 1 (CIB1) Competitor (AID 1508620); conditions: CIB1-GST / FITC-alphaIIb peptide fluorescence polarization; at 114 µM (top of the series);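 note: GST tagged CIB1 binding a fluorescein labelled alphaIIb integrin peptide tracer; top concentration of the series differs between compounds; % is set by controls: 0 for no effect and ±100 for the full control effect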
Procedure, shortened: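 CIB1-GST (1 uM final) and compound incubated 15 min at room temperature before adding FITC-alphaIIb peptide tracer (100 nM final). Competition for binding read by fluorescence polarization (ex 480, em 540) after another 15 min at room temperature.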

[12] = molecular target: Glutathione peroxidase 1 (Homo sapiens) (UniProt P07203); experiment: Primary qHTS Assay for Inhibitors of Recombinant Selenoprotein Glutathione Peroxidase 1 (GPX1) (AID 1845191); conditions: recombinant GPX1, GR-coupled NADPH fluorescence, 15 min; at 48.8 µM (top of the series); note: % is set by controls: 0 for no effect and ±100 for the full control effect; nearly all actives have a fitted effect of over 65% in size
Procedure, shortened: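 10 nM GPX1 + cpd, 30 min RT; start w/ 1 mM GSH, 0.5 mM cumene hydroperoxide, 0.5 mM NADPH, 100 nM GR, 0.01% BSA; buffer 50 mM Tris-HCl pH 7.5, 2 mM EDTA, 150 mM NaCl; Fl 340/450, 0 & 15 min.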

[13] = molecular target: Phospholipid hydroperoxide glutathione peroxidase GPX4 (Homo sapiens) (UniProt P36969); experiment: Primary qHTS Assay for Inhibitors of Recombinant Selenoprotein Glutathione Peroxidase 4 (GPX4) (AID 1845192); conditions: recombinant GPX4, GR-coupled NADPH fluorescence, 15 min; at 50 µM (top of the series); note: % is set by controls: 0 for no effect and ±100 for the full control effect; nearly all actives have a fitted effect of over 65% in size
Procedure, shortened: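 NADPH consumption, followed by fluorescence at 340/450 nm between 0 and 15 min, reports GPX4 activity via coupled glutathione reductase (100 nM). Enzyme 200 nM was pre-exposed to compound 30 min; 0.5 mM cumene hydroperoxide and 1 mM GSH served as substrates.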

[14] = qHTS profiling for inhibitors of Plasmodium falciparum proliferation (AID 504749);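 note: 0% = DMSO vehicle and full inhibition = artemisinin control; nearly all actives have a fitted effect of over 60% in size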; conditions: P. falciparum in erythrocytes, SYBR Green DNA, 72 h, at 28.7 µM (top of the series)
Procedure, shortened: (§3)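 Three-day growth assay of blood-stage parasites in erythrocytes (0.3% parasitemia, 2.5% hematocrit) at 37 C, 5% CO2, quantified by SYBR Green DNA staining after overnight detergent lysis.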

3D7 = experiment: as above; conditions: P. falciparum in erythrocytes, SYBR Green DNA, 72 h; at 28.7 µM (top of the series)
Procedure, shortened: as §3

7G8 = experiment: as above; conditions: P. falciparum in erythrocytes, SYBR Green DNA, 72 h; at 28.7 µM (top of the series)
Procedure, shortened: as §3

AA1029 = experiment: as above; conditions: P. falciparum in erythrocytes, SYBR Green DNA, 72 h; at 28.7 µM (top of the series)
Procedure, shortened: as §3

AS120 = experiment: as above; conditions: P. falciparum in erythrocytes, SYBR Green DNA, 72 h; at 28.7 µM (top of the series)
Procedure, shortened: as §3

ATS189 = experiment: as above; conditions: P. falciparum in erythrocytes, SYBR Green DNA, 72 h; at 28.7 µM (top of the series)
Procedure, shortened: as §3

ATS95 = experiment: as above; conditions: P. falciparum in erythrocytes, SYBR Green DNA, 72 h; at 28.7 µM (top of the series)
Procedure, shortened: as §3

CC(C)(C)c1ccc(O)cc1
inactive: activity change, negative = cytotoxic [1] 6.8% | activity change, negative = cytotoxic [2] 30.7% | activity change, negative = cytotoxic [3] 6.4% | activity change, negative = cytotoxic [4] 10.4% | activity change, negative = cytotoxic [5] 10.2% | activity change, negative = cytotoxic [6] -6.54% | activity change, negative = cytotoxic [7] 0.94% | activity change, negative = cytotoxic [8] 26.2% | activity change, negative = cytotoxic [9] 32.8% | activity change, negative = inhibition [10] -6.46% | activity change, negative = inhibition [11] 2.09% | activity, negative = inhibition [12] -14.5% | activity change, negative = inhibition [13] -12.6% | activity, negative = inhibition ([14]; parasite line A) 2.69% | activity, negative = inhibition ([14]; parasite line B) 20.7% | activity, negative = inhibition (3D7) 9.58% | activity, negative = inhibition (7G8) -1.23% | activity, negative = inhibition (AA1029) -5.4% | activity, negative = inhibition (AS120) -3.49% | activity, negative = inhibition (ATS189) 1.2% | activity, negative = inhibition (ATS95) -2.33%

From PubChem BioAssay (NCATS)
